Source: paper PMC9830914, “Differential effects of mutations of POPDC proteins on heteromeric interaction and membrane trafficking” (Acta Neuropathologica Communications, 2023)

Key:
Experiment in all cases: co-IP; COS-7 cells transiently expressing epitope-tagged POPDC constructs, 1% Triton X-100 lysis buffer; c-Myc Tag or HA Tag IP/Co-IP kit; Western blot
[1] = molecular target: POPDC1-MYC truncation Δ236 (not stated (human or mouse cDNA cloned))
[2] = molecular target: POPDC1-MYC truncation Δ245 (not stated (human or mouse cDNA cloned))
[3] = molecular target: POPDC1-MYC truncation Δ116 (not stated (human or mouse cDNA cloned))
[4] = molecular target: POPDC1-MYC truncation Δ172 (not stated (human or mouse cDNA cloned))

- binding [1]: binds
- binding [2]: binds
- binding [3]: binds
- binding [4]: binds
B1: POPDC2-FLAG (protein, UniProt Q9HBU9 1-364)
chain: MSANSSRVGQLLLQGSACIRWKQDVEGAVYHLANCLLLLGFMGGSGVYGCFYLFGFLSAGYLCCVLWGWFSACGLDIVLWSFLLAVVCLLQLAHLVYRLREDTLPEEFDLLYKTLCLPLQVPLQTYKEIVHCCEEQVLTLATEQTYAVEGETPINRLSLLLSGRVRVSQDGQFLHYIFPYQFMDSPEWESLQPSEEGVFQVTLTAETSCSYISWPRKSLHLLLTKERYISCLFSALLGYDISEKLYTLNDKLFAKFGLRFDIRLPSLYHVLGPTAADAGPESEKGDEEVCEPAVSPPQATPTSLQQTPPCSTPPATTNFPAPPTRARLSRPDSGILASRIPLQSYSQVISRGQAPLAPTHTPEL

Results are given in words; binding and its absence hold for the method and conditions named. In cells and extracts the contact can be indirect. Binding can be weak; no strength is given. Where a sequence is shown, tags or fusion partners need not be part of it.
